Data source: PubChem BioAssay AID652272 (Drosophila RNAi Screening Center, 2013)
The screen tested about 21,000 reagents; shown is an unselected part of those with a known target gene and a result. Over the whole deposit, 503 (2.4%) got an active call. 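Raw plate light values, not normalised; calls rest on replicate z-scores that were not deposited; hits include reporter decreases as well as increases.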 The numbers tell different reagents against one gene apart. A plus sign joins genes that one reagent is predicted to hit. Not given: the amount of reagent, the time to read-out.

- Purpose: 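Genes whose knock-down decreases or increases Hedgehog reporter output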 (primary screen)
- System: Drosophila clone 8 (Cl8) cells
- Knock-down reagent: long dsRNA against Drosophila genes
- Detection: 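Firefly light from a Hedgehog-responsive ptc promoter reporter and Renilla reference light, both read on a plate reader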
- Direction: firefly Hh reporter signal: higher = more ptc reporter light; Renilla reference signal: higher = more Renilla control light
- Hit rule: 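Hit when the z-score averaged over two replicates is under -2 or over +3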
- Calls: active = hit: reporter lowered or raised; inactive = not a hit

gene	reagent	firefly Hh reporter signal, replicate 1	firefly Hh reporter signal, replicate 2	firefly Hh reporter signal, replicate 3	Renilla reference signal, replicate 1	Renilla reference signal, replicate 2	Call
CG30183	1	71424	46087		1756	5082	inactive
CG30183	2	70869	49793		1655	5266	inactive
CG9775	1	1.77e5	1.46e5		5957	6260	inactive
fusl (fuseless)	1	58677	75603		2470	3211	inactive
CG34276	1	97243	95216		1917	2812	inactive
sstn (stepping stone)	1	76992			4923	2872	inactive
Muc30E (Mucin 30E)	1	6.51e5	6.97e5	3.02e5	31268	4833	inactive
Ance-4	1	86418	45062		1896	3780	inactive
bsd (back seat driver)	1	73712	28883		1473	1866	inactive
kermit	1	80819	52416		3290	2229	inactive
RfC3 (Replication factor C subunit 3)	1	1.02e5	48108		2797	4481	inactive
Cks30A (Cyclin-dependent kinase subunit 30A)	1	62380	45584		2672	2101	inactive
CG33290	1	2.34e5			4981		inactive
osk (oskar)	1	1.25e5	69481		4592	2909	inactive
CG15864	1	82400	91634		3088	2720	inactive
CG3036	1	8.13e5	3.13e5		41505	13240	inactive
CG3036	2	49408	96714		2355	3840	inactive
RpL40 (Ribosomal protein L40)	1	35361	21504		1083	4425	active
wfs1 (wolfram syndrome 1)	1	5.09e5	1.06e5		23440	3339	inactive
St4 (Sulfotransferase 4)	1	68832	74083		1888	4790	inactive
Or63a (Odorant receptor 63a)	1	95576	45943		3065	3731	inactive
ttm3 (tiny tim 3)	1	89997	70198		2485	6409	inactive
Rab18	1	81302	77680		1968	2348	inactive
CG11106	1	70099	1.60e5		1819	7164	inactive
CG8677 + CG31626	1	6.28e5	2.22e5	1.59e5	6359	5601	inactive
TwdlX (TweedleX)	1	5.24e5	2.53e5		29984	6160	inactive
CG34423 + Mthfs	1	64361	53451		1573	4576	inactive
XRCC1	1	1.25e5	66103		2945	1684	inactive
obst-I (obstructor-I)	1	94106	67190		3861	2696	inactive
CstF64 (Cleavage stimulation factor 64 kD subunit)	1	6.19e5	1.06e5		37292	4425	inactive
CG14607	1	61238	84932		1733	2634	inactive
Torsin	1	4.91e5	4.81e5	69312	3041	2496	inactive
Ccdc85	1	57891	30792		906	2859	inactive
CG6280	1	91265	59964		2698	4288	inactive
GrlHz (Gustatory receptor-like Holozoa)	1	90007	76402		3605	2884	inactive
Nup93-2 (Nucleoporin 93kD-2)	1	85149	68892		3557	2856	inactive
Camta (Calmodulin-binding transcription activator)	1	1.24e5	39268		3253	3800	inactive
Camta (Calmodulin-binding transcription activator)	2	1.70e5	3.58e5	94860	4193	22932	inactive
Camta (Calmodulin-binding transcription activator)	3	72541	34537		2592	1366	inactive
fh (frataxin)	1	76120	3.10e5		3005	10967	inactive
CG2818	1	93560	1.21e5		3520	5408	inactive
LTV1 (LTV1 ribosome biogenesis factor)	1	88928	56336		3766	2345	inactive
Nup43 (Nucleoporin 43kD)	1	7.38e5	1.40e5		37275	3981	inactive
CG1273	1	1.17e5	49381		3125	1644	inactive
Vha16-1 (Vacuolar H[+] ATPase 16kD subunit 1)	1	1.22e5	62916		3252	5980	inactive
dmGlut (Dietary and metabolic glutamate transporter)	1	87228	58771		3621	2438	inactive
CG30447	1	1.15e5	2.74e5		3222	10904	inactive
Sym (Symplekin)	1	92928	63634		6503	4177	active
lgs (legless)	1	1.21e5	60680		2880	2375	inactive
CG33483	1	5.58e5	2.06e5		26368	5019	inactive
CG33342 (HDC15381)	1	46160	2.33e5		12512	5286	inactive
Art7 (Arginine methyltransferase 7)	1	73078	49826		1269	4229	inactive
CG1116	1	88837	1.11e5		3402	3120	inactive
fw (furrowed)	1	72763	1.86e5		1585	6795	inactive
alpha-Est4aPsi (pseudo)	1	1.52e5			3239		inactive
srl (spargel)	1	1.66e5	1.51e5		5895	4896	inactive
CG14618	1	66582	1.35e5		2150	6553	inactive

Reagents listed above called active:
gene	reagent	firefly Hh reporter signal, replicate 1	firefly Hh reporter signal, replicate 2	firefly Hh reporter signal, replicate 3	Renilla reference signal, replicate 1	Renilla reference signal, replicate 2	Call
RpL40 (Ribosomal protein L40)	1	35361	21504		1083	4425	active
Sym (Symplekin)	1	92928	63634		6503	4177	active
